For three molecules, binding results are on record in paper PMC8910852.

The target in the assay is FtMYB3 (Tartary buckwheat (Fagopyrum tataricum)) (UniProt F5BUC8). In words: two-hybrid; FtMYB3 in pGADT7 (called the bait), partners in pGBKT7 (called the prey); yeast strain AH109; selection on SD/-Trp-Leu, then growth on SD/-Trp-Leu-His-Ade.

Results are given in words; binding and its absence hold for the method and conditions named. Binding can be weak; no strength is given.

B1: AtEGL3 (protein, UniProt Q9CAD0 1-596)
chain: MATGENRTVPDNLKKQLAVSVRNIQWSYGIFWSVSASQPGVLEWGDGYYNGDIKTRKTIQAAEVKIDQLGLERSEQLRELYESLSLAESSASGSSQVTRRASAAALSPEDLTDTEWYYLVCMSFVFNIGEGIPGGALSNGEPIWLCNAETADSKVFTRSLLAKSASLQTVVCFPFLGGVLEIGTTEHIKEDMNVIQSVKTLFLEAPPYTTISTRSDYQEIFDPLSDDKYTPVFITEAFPTTSTSGFEQEPEDHDSFINDGGASQVQSWQFVGEEISNCIHQSLNSSDCVSQTFVGTTGRLACDPRKSRIQRLGQIQEQSNHVNMDDDVHYQGVISTIFKTTHQLILGPQFQNFDKRSSFTRWKRSSSVKTLGEKSQKMIKKILFEVPLMNKKEELLPDTPEETGNHALSEKKRREKLNERFMTLRSIIPSISKIDKVSILDDTIEYLQDLQKRVQELESCRESADTETRITMMKRKKPDDEEERASANCMNSKRKGSDVNVGEDEPADIGYAGLTDNLRISSLGNEVVIELRCAWREGILLEIMDVISDLNLDSHSVQSSTGDGLLCLTVNCKHKGTKIATTGMIQEALQRVAWIC
Regarding B1, the binding result was “binds”.

B2: AtGL3 (protein, UniProt Q9FN69 1-637)
chain: MATGQNRTTVPENLKKHLAVSVRNIQWSYGIFWSVSASQSGVLEWGDGYYNGDIKTRKTIQASEIKADQLGLRRSEQLSELYESLSVAESSSSGVAAGSQVTRRASAAALSPEDLADTEWYYLVCMSFVFNIGEGMPGRTFANGEPIWLCNAHTADSKVFSRSLLAKSAAVKTVVCFPFLGGVVEIGTTEHITEDMNVIQCVKTSFLEAPDPYATILPARSDYHIDNVLDPQQILGDEIYAPMFSTEPFPTASPSRTTNGFDQEHEQVADDHDSFMTERITGGASQVQSWQLMDDELSNCVHQSLNSSDCVSQTFVEGAAGRVAYGARKSRVQRLGQIQEQQRNVKTLSFDPRNDDVHYQSVISTIFKTNHQLILGPQFRNCDKQSSFTRWKKSSSSSSGTATVTAPSQGMLKKIIFDVPRVHQKEKLMLDSPEARDETGNHAVLEKKRREKLNERFMTLRKIIPSINKIDKVSILDDTIEYLQELERRVQELESCRESTDTETRGTMTMKRKKPCDAGERTSANCANNETGNGKKVSVNNVGEAEPADTGFTGLTDNLRIGSFGNEVVIELRCAWREGVLLEIMDVISDLHLDSHSVQSSTGDGLLCLTVNCKHKGSKIATPGMIKEALQRVAWIC
For the molecule B2, the binding entry was “binds”.

B3: AtTTG1 (protein, UniProt Q9XGN1 1-341)
chain: MDNSAPDSLSRSETAVTYDSPYPLYAMAFSSLRSSSGHRIAVGSFLEDYNNRIDILSFDSDSMTVKPLPNLSFEHPYPPTKLMFSPPSLRRPSSGDLLASSGDFLRLWEINEDSSTVEPISVLNNSKTSEFCAPLTSFDWNDVEPKRLGTCSIDTTCTIWDIEKSVVETQLIAHDKEVHDIAWGEARVFASVSADGSVRIFDLRDKEHSTIIYESPQPDTPLLRLAWNKQDLRYMATILMDSNKVVILDIRSPTMPVAELERHQASVNAIAWAPQSCKHICSGGDDTQALIWELPTVAGPNGIDPMSVYSAGSEINQLQWSSSQPDWIGIAFANKMQLLRV
Regarding B3, the binding entry is “binds”.
